In article PMC5131891, “Structural Insights into Streptococcal Competence Regulation by the Cell-to-Cell Communication System ComRS” (PLoS Pathogens, 2016):
Where a chain is given by its changes, count along the chain named. For at least one entry, the source does not settle the construct or the ends of the probe. A weaker result is weaker than the reference pair of the same experiment. For some assays here: At least one verdict rests on a figure or table, not on a statement of the authors. Where a protein sequence is shown, tags need not be part of it.

How the values were obtained:
Test in all cases: EMSA
[1] = test system: T1, ComR E117A/E118A (Streptococcus thermophilus LMD-9); conditions: no XIP, ComR up to 3.5 uM, binds, but less than E146A/D147A; EMSA: 20 mM Tris-HCl pH 8.0, 150 mM NaCl, 1 mM EDTA, 10% glycerol, 1 mg/ml BSA, 37 C 10 min, 40 ng DNA in 20 ul; recombinant protein; protein details: C-terminal StreptagII
T1 sequence (looked up, limits assumed): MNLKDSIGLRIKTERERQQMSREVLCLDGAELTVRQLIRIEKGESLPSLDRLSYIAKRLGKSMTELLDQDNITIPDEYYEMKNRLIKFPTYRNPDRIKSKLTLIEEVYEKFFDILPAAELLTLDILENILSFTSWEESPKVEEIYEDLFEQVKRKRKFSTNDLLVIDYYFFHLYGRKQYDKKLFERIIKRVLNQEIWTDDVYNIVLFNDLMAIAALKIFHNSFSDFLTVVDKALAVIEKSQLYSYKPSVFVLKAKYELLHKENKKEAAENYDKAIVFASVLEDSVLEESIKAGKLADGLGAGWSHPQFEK

[2] = test system: T2, ComR F171A/Y174A (Streptococcus thermophilus LMD-9); conditions: XIP 0.2-1.2 uM, ComR 4 uM; EMSA: 20 mM Tris-HCl pH 8.0, 150 mM NaCl, 1 mM EDTA, 10% glycerol, 1 mg/ml BSA, 37 C 10 min, 40 ng DNA in 20 ul; recombinant protein; protein details: C-terminal StreptagII
T2 sequence (looked up, limits assumed): T1 sequence (looked up, limits assumed) with A117E, A118E, F171A, Y174A

[3] = test system: T3, ComR K100A (Streptococcus thermophilus LMD-9); conditions: XIP 0.2-1.2 uM, ComR 4 uM; EMSA: 20 mM Tris-HCl pH 8.0, 150 mM NaCl, 1 mM EDTA, 10% glycerol, 1 mg/ml BSA, 37 C 10 min, 40 ng DNA in 20 ul; recombinant protein; protein details: C-terminal StreptagII
T3 sequence (looked up, limits assumed): T1 sequence (looked up, limits assumed) with K100A, A117E, A118E

[4] = test system: T4, ComR K246A (Streptococcus thermophilus LMD-9); conditions: XIP 0.2-1.2 uM, ComR 4 uM; EMSA: 20 mM Tris-HCl pH 8.0, 150 mM NaCl, 1 mM EDTA, 10% glycerol, 1 mg/ml BSA, 37 C 10 min, 40 ng DNA in 20 ul; recombinant protein; protein details: C-terminal StreptagII
T4 sequence (looked up, limits assumed): T1 sequence (looked up, limits assumed) with A117E, A118E, K246A

[5] = test system: T5, ComR K87A (Streptococcus thermophilus LMD-9); conditions: XIP 0.2-1.2 uM, ComR 4 uM; EMSA: 20 mM Tris-HCl pH 8.0, 150 mM NaCl, 1 mM EDTA, 10% glycerol, 1 mg/ml BSA, 37 C 10 min, 40 ng DNA in 20 ul; recombinant protein; protein details: C-terminal StreptagII
T5 sequence (looked up, limits assumed): T1 sequence (looked up, limits assumed) with K87A, A117E, A118E

[6] = test system: T6, ComR R92A (Streptococcus thermophilus LMD-9); conditions: XIP 0.2-1.2 uM, ComR 4 uM; EMSA: 20 mM Tris-HCl pH 8.0, 150 mM NaCl, 1 mM EDTA, 10% glycerol, 1 mg/ml BSA, 37 C 10 min, 40 ng DNA in 20 ul; recombinant protein; protein details: C-terminal StreptagII
T6 sequence (looked up, limits assumed): T1 sequence (looked up, limits assumed) with R92A, A117E, A118E

[7] = test system: T7, ComR T90A (Streptococcus thermophilus LMD-9); conditions: XIP 0.2-1.2 uM, ComR 4 uM; EMSA: 20 mM Tris-HCl pH 8.0, 150 mM NaCl, 1 mM EDTA, 10% glycerol, 1 mg/ml BSA, 37 C 10 min, 40 ng DNA in 20 ul; recombinant protein; protein details: C-terminal StreptagII
T7 sequence (looked up, limits assumed): T1 sequence (looked up, limits assumed) with T90A, A117E, A118E

[8] = test system: T8, ComR Y91A (Streptococcus thermophilus LMD-9); conditions: XIP 0.2-1.2 uM, ComR 4 uM; EMSA: 20 mM Tris-HCl pH 8.0, 150 mM NaCl, 1 mM EDTA, 10% glycerol, 1 mg/ml BSA, 37 C 10 min, 40 ng DNA in 20 ul; recombinant protein; protein details: C-terminal StreptagII
T8 sequence (looked up, limits assumed): T1 sequence (looked up, limits assumed) with Y91A, A117E, A118E

Measured: binding result

CAAAATCGAGTAGTGACATTTATGTCACTACTTTTTTGTT (double strand) [Cy3-boxPster_1655 wt (40 bp)]
binds more weakly: all assays above
